# Source: PubChem BioAssay AID720505 (Drosophila RNAi Screening Center, 2013)
# Purpose: 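Genes needed for store-operated calcium entry in fly cells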 (primary screen)
# Cells: Drosophila S2R+ cells
# Knock-down reagent: long dsRNA against Drosophila genes
# Treatment: thapsigargin (2 µM) in calcium-free buffer to empty internal stores, then 2 mM calcium added back
# Measured: 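Stores emptied by 2 µM thapsigargin without calcium, then 2 mM calcium re-added; fluo-4 fluorescence followed by FLIPR in 384-well plates, per-well averaged endpoint, raw; two screen passes, some wells retested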
# Scale: calcium signal and retest calcium signal: higher = more calcium entry after store depletion
# Rule for the call: 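Knock-downs counted as hits when calcium entry dropped relative to STIM1 positive and Rho1 negative controls present on each plate; roughly 1500 genes called, with reductions of differing size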
# Calls: active = called as lowering calcium entry; inactive = not called
# The screen tested about 20,000 reagents; this is an unselected part of those with a known target gene and a result. Over the whole deposit, about 2,100 (10%) are marked active. 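Raw plate signals without normalisation; calls rest on control-based scores that were not deposited; replicate 2 separates called from uncalled poorly.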 Names joined by + are all predicted targets of the reagent. No sequences are given here. The record does not give: the amount of reagent, the time to read-out.
The first 8 records, ahead of the listing:
Target gene,dsRNA,"calcium signal, replicate 1","calcium signal, replicate 2","retest calcium signal, replicate 1","retest calcium signal, replicate 2",call
CR9337,DRSC03212,91.3,81.4,,,inactive
CG34136,DRSC01833,109,4196,,,inactive
Gr32a,DRSC02400,203,155,,,inactive
CG31705,DRSC01991,74.8,90.7,,,inactive
CG31676,DRSC02387,177,108,,,inactive
CG15373,DRSC19663,89.9,143,,,inactive
CG2712,DRSC18589,101,160,,,inactive
Golgin97,DRSC06895,153,115,,,inactive

Main list, repeating the preview:
Target gene,dsRNA,"calcium signal, replicate 1","calcium signal, replicate 2","retest calcium signal, replicate 1","retest calcium signal, replicate 2",call
CR9337,DRSC03212,91.3,81.4,,,inactive
CG34136,DRSC01833,109,4196,,,inactive
Gr32a,DRSC02400,203,155,,,inactive
CG31705,DRSC01991,74.8,90.7,,,inactive
CG31676,DRSC02387,177,108,,,inactive
CG15373,DRSC19663,89.9,143,,,inactive
CG2712,DRSC18589,101,160,,,inactive
Golgin97,DRSC06895,153,115,,,inactive
SkpC,DRSC20375,135,102,,,inactive
Kdm5,DRSC03133,120,152,,,inactive
CG7881,DRSC04898,109,165,,,inactive
CG7568,DRSC16259,148,135,,,inactive
Toll-6,DRSC11304,77.6,153,,,inactive
Epac,DRSC04969,153,163,,,inactive
Epac,DRSC04996,193,98.3,,,inactive
Epac,DRSC04997,168,207,,,inactive
CG34107,DRSC14554,126,103,,,inactive
Pms2,DRSC07511,97.4,118,,,inactive
CG10638,DRSC09762,135,121,,,inactive
CG34409,DRSC14577,151,103,,,inactive
CG34409,DRSC21667,258,90.7,,,inactive
CG30043,DRSC06285,155,217,,,inactive
nAChRalpha5,DRSC01360,64.3,78.6,,,active
nAChRalpha5,DRSC01946,128,138,,,inactive
nAChRalpha5,DRSC01947,113,159,101,101,inactive
nAChRalpha5,DRSC22785,109,153,,,inactive
CG15387,DRSC00401,133,138,,,inactive
CG1387,DRSC17904,135,79.2,,,inactive
CG30440,DRSC04775,78.7,57.8,,,inactive
CG30440,DRSC04845,101,171,,,inactive
CG30440,DRSC04855,138,152,,,inactive
Twdlalpha,DRSC19914,102,171,,,inactive
CG6184,DRSC15986,249,169,,,inactive
Gcn2,DRSC16678,71.4,87.5,,,inactive
CG13084,DRSC02188,144,98.5,,,inactive
PGRP-SA,DRSC19420,69,93.3,,,inactive
CG8564,DRSC10997,129,90.6,,,inactive
Smyd5,DRSC15483,129,189,,,inactive
Cad86C,DRSC15587,157,122,,,inactive
Cad86C,DRSC15611,154,92.8,,,inactive
CG9114,DRSC20155,76.5,109,,,inactive
Prx4,DRSC08668,71.7,72.3,,,inactive
cag,DRSC07587,123,184,,,inactive
Phf7,DRSC20692,159,135,,,inactive
PCNA2,DRSC02030,63.2,231,,,inactive
unc,DRSC20511,147,94.3,,,inactive
wcy,DRSC20132,116,129,,,inactive
Alms1b + Alms1a,DRSC18559,111,130,,,inactive
thoc5,DRSC04327,120,94.6,,,inactive
Ufsp1,DRSC04958,79.1,90.1,,,inactive
CG14646,DRSC12232,126,90.4,143,125,inactive
CG14646,DRSC21316,133,95.8,,,inactive
WASp,DRSC15032,166,148,,,inactive
ss,DRSC17069,143,139,,,inactive
CG31606,DRSC01012,168,114,,,inactive
E(spl)m5-HLH,DRSC16695,244,90.9,,,inactive
Clp,DRSC00746,110,147,,,inactive
ase,DRSC18739,73.8,78.6,,,active
Sh,DRSC19214,63.8,52.1,,,active
Sh,DRSC19220,89.3,118,81.9,105,inactive
Sh,DRSC19785,95.1,113,,,inactive
Sh,DRSC20055,97.6,161,,,inactive
Sh,DRSC22567,80.8,137,,,inactive
Cox17,DRSC20145,76.7,100,,,inactive
CG13137,DRSC02234,128,112,,,inactive
psq,DRSC07668,135,133,,,inactive
psq,DRSC23094,99.6,147,,,inactive
CG15109,DRSC06536,119,132,,,inactive
btd,DRSC18747,72,86.6,,,active
can,DRSC10664,137,110,,,inactive
slif,DRSC11635,113,80,,,inactive
GNBP2,DRSC10404,133,118,,,inactive
CG31265,DRSC15745,163,176,,,inactive
ng3,DRSC18804,117,123,,,inactive
VhaSFD,DRSC03471,87.7,89,,,inactive
CG33158,DRSC09708,86.3,133,,,inactive
CG33158,DRSC09709,114,128,,,inactive
CG33158,DRSC10438,81.8,166,,,inactive
Lamp1,DRSC03727,141,115,,,inactive
CG15614,DRSC06567,144,159,,,inactive
Zaf1,DRSC16121,125,119,,,inactive
CG30161,DRSC22141,51.8,170,,,active
lost,DRSC12234,67.1,128,152,104,active
lost,DRSC21987,70.8,117,,,inactive
